PubChem BioAssay AID1508597, Cure First – 2020

- Test: 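Genes whose silencing sensitises or protects ovarian cancer cells against rucaparib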 (primary screen)
- Cell system: human ovarian carcinoma lines grown from tumours: OCI-P5x (papillary serous) and OCI-C5x (clear cell)
- Knock-down reagent: siRNA pool against human genes, 1.25 pmol siRNA per well
- Timing: 72 h or 96 h, depending on the cell culture
- Treatment: rucaparib 20 µM (about IC30) or vehicle, present until read-out
- Measured: 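ATP luminescence measured at 72 or 96 h according to the culture, then normalised and expressed as percent viability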
- Scale: viability, normalised: higher = more viable cells remaining
- Hit rule: 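Active when normalised viability falls below 80 percent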
- Calls: active = viability under 80%; inactive = viability 80% or more
Shown is one part, drawn at random, of about 2,100 deposited reagents. 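Calls flag viability under 80% in either arm, not effects specific to rucaparib; the reference for percent is not stated.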 Not given: the 100% reference.

What is on record for KDM5C (GeneID 8242), rucaparib or vehicle Rucaparib, cell line OCI-C5x (clear cell), technical replicate 1?
viability, normalised (%): 23.7; Outcome: active

For KDM5C (GeneID 8242), rucaparib or vehicle Rucaparib, cell line OCI-C5x (clear cell), technical replicate 2, how do the results read?
viability, normalised (%): 22.7; Outcome: active

With KDM5C (GeneID 8242), rucaparib or vehicle Rucaparib, cell line OCI-C5x (clear cell), technical replicate 3, what was measured?
viability, normalised (%): 18.6; Outcome: active

For KDM5C (GeneID 8242), rucaparib or vehicle Rucaparib, cell line OCI-P5x (serous), technical replicate 1, how do the results read?
viability, normalised (%): 37.1; Outcome: active

How did the screen score KDM5C (GeneID 8242), rucaparib or vehicle Rucaparib, cell line OCI-P5x (serous), technical replicate 2?
viability, normalised (%): 36.8; Outcome: active

For KDM5C (GeneID 8242), rucaparib or vehicle Rucaparib, cell line OCI-P5x (serous), technical replicate 3, how do the results read?
viability, normalised (%): 44.9; Outcome: active

For KDM5C (GeneID 8242), rucaparib or vehicle Vehicle, cell line OCI-C5x (clear cell), technical replicate 1, how do the results read?
viability, normalised (%): 34.3; Outcome: active

For KDM5C (GeneID 8242), rucaparib or vehicle Vehicle, cell line OCI-C5x (clear cell), technical replicate 2, what does the deposit list?
viability, normalised (%): 23.2; Outcome: active

Which result is listed for KDM5C (GeneID 8242), rucaparib or vehicle Vehicle, cell line OCI-C5x (clear cell), technical replicate 3?
viability, normalised (%): 43.2; Outcome: active

For KDM5C (GeneID 8242), rucaparib or vehicle Vehicle, cell line OCI-P5x (serous), technical replicate 1, what does the deposit list?
viability, normalised (%): 41.7; Outcome: active

How did the screen score KDM5C (GeneID 8242), rucaparib or vehicle Vehicle, cell line OCI-P5x (serous), technical replicate 2?
viability, normalised (%): 41.3; Outcome: active

For KDM5C (GeneID 8242), rucaparib or vehicle Vehicle, cell line OCI-P5x (serous), technical replicate 3, how do the results read?
viability, normalised (%): 78.2; Outcome: active

With MORC4 (GeneID 79710), rucaparib or vehicle Rucaparib, cell line OCI-C5x (clear cell), technical replicate 1, what does the deposit list?
viability, normalised (%): 65.8; Outcome: active

How did the screen score MORC4 (GeneID 79710), rucaparib or vehicle Rucaparib, cell line OCI-C5x (clear cell), technical replicate 2?
viability, normalised (%): 48.6; Outcome: active

How did the screen score MORC4 (GeneID 79710), rucaparib or vehicle Rucaparib, cell line OCI-C5x (clear cell), technical replicate 3?
viability, normalised (%): 42.6; Outcome: active

With MORC4 (GeneID 79710), rucaparib or vehicle Rucaparib, cell line OCI-P5x (serous), technical replicate 1, what was measured?
viability, normalised (%): 83.2; Outcome: inactive

Which result is listed for MORC4 (GeneID 79710), rucaparib or vehicle Rucaparib, cell line OCI-P5x (serous), technical replicate 2?
viability, normalised (%): 74; Outcome: active

With MORC4 (GeneID 79710), rucaparib or vehicle Rucaparib, cell line OCI-P5x (serous), technical replicate 3, how do the results read?
viability, normalised (%): 82; Outcome: inactive

With MORC4 (GeneID 79710), rucaparib or vehicle Vehicle, cell line OCI-C5x (clear cell), technical replicate 1, what was measured?
viability, normalised (%): 58.3; Outcome: active

How did the screen score MORC4 (GeneID 79710), rucaparib or vehicle Vehicle, cell line OCI-C5x (clear cell), technical replicate 2?
viability, normalised (%): 65.9; Outcome: active

What did the screen give for MORC4 (GeneID 79710), rucaparib or vehicle Vehicle, cell line OCI-C5x (clear cell), technical replicate 3?
viability, normalised (%): 59.6; Outcome: active

For MORC4 (GeneID 79710), rucaparib or vehicle Vehicle, cell line OCI-P5x (serous), technical replicate 1, how do the results read?
viability, normalised (%): 65.8; Outcome: active

What did the screen give for MORC4 (GeneID 79710), rucaparib or vehicle Vehicle, cell line OCI-P5x (serous), technical replicate 2?
viability, normalised (%): 84.1; Outcome: inactive

What is on record for MORC4 (GeneID 79710), rucaparib or vehicle Vehicle, cell line OCI-P5x (serous), technical replicate 3?
viability, normalised (%): 75.8; Outcome: active

2 consecutive entries already listed, for reference:
KDM5C (GeneID 8242), rucaparib or vehicle Vehicle, cell line OCI-P5x (serous), technical replicate 3 — viability, normalised (%): 78.2; Outcome: active
MORC4 (GeneID 79710), rucaparib or vehicle Rucaparib, cell line OCI-C5x (clear cell), technical replicate 1 — viability, normalised (%): 65.8; Outcome: active

Further reagents follow:
With SBNO1 (GeneID 55206), rucaparib or vehicle Rucaparib, cell line OCI-C5x (clear cell), technical replicate 1, what was measured?
viability, normalised (%): 47.6; Outcome: active

Which result is listed for SBNO1 (GeneID 55206), rucaparib or vehicle Rucaparib, cell line OCI-C5x (clear cell), technical replicate 2?
viability, normalised (%): 41.6; Outcome: active

For SBNO1 (GeneID 55206), rucaparib or vehicle Rucaparib, cell line OCI-C5x (clear cell), technical replicate 3, what does the deposit list?
viability, normalised (%): 47.9; Outcome: active

With SBNO1 (GeneID 55206), rucaparib or vehicle Rucaparib, cell line OCI-P5x (serous), technical replicate 1, how do the results read?
viability, normalised (%): 39.9; Outcome: active

What is on record for SBNO1 (GeneID 55206), rucaparib or vehicle Rucaparib, cell line OCI-P5x (serous), technical replicate 2?
viability, normalised (%): 49.7; Outcome: active

For SBNO1 (GeneID 55206), rucaparib or vehicle Rucaparib, cell line OCI-P5x (serous), technical replicate 3, what does the deposit list?
viability, normalised (%): 49.8; Outcome: active

How did the screen score SBNO1 (GeneID 55206), rucaparib or vehicle Vehicle, cell line OCI-C5x (clear cell), technical replicate 1?
viability, normalised (%): 42.9; Outcome: active

With SBNO1 (GeneID 55206), rucaparib or vehicle Vehicle, cell line OCI-C5x (clear cell), technical replicate 2, how do the results read?
viability, normalised (%): 36.5; Outcome: active

Which result is listed for SBNO1 (GeneID 55206), rucaparib or vehicle Vehicle, cell line OCI-C5x (clear cell), technical replicate 3?
viability, normalised (%): 57.1; Outcome: active

What did the screen give for SBNO1 (GeneID 55206), rucaparib or vehicle Vehicle, cell line OCI-P5x (serous), technical replicate 1?
viability, normalised (%): 60.2; Outcome: active

For SBNO1 (GeneID 55206), rucaparib or vehicle Vehicle, cell line OCI-P5x (serous), technical replicate 2, what was measured?
viability, normalised (%): 58.8; Outcome: active

For SBNO1 (GeneID 55206), rucaparib or vehicle Vehicle, cell line OCI-P5x (serous), technical replicate 3, what does the deposit list?
viability, normalised (%): 72.4; Outcome: active
